Results deposited as PubChem BioAssay AID652259 (Drosophila RNAi Screening Center, 2013)

- Aim: 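Identify new Wingless signalling regulators in fly cells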 (primary screen)
- Cell system: Drosophila clone 8 imaginal disc epithelial cells
- Reagent: long dsRNA against Drosophila genes
- Treatment: pathway stimulated by co-transfected Wingless expression plasmid
- Detection: 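Firefly luciferase from a tcf-site Wingless reporter, measured alongside co-transfected Renilla luciferase that tracks transfection; pathway stimulated by a Wingless plasmid; the firefly-to-Renilla ratio is not deposited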
- Direction: firefly reporter light: higher = more Wg reporter light, before normalisation; Renilla control light: higher = more transfected or surviving cells
- Rule for the call: 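a knock-down is a candidate when at least two out of four statistical tests show it departing from its plate mean; one test alone signals a weak candidate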
- Meaning of the calls: active = candidate regulator (raises or lowers reporter); inactive = not a candidate
The screen tested about 22,000 reagents; below is an unselected part of those that have a named target and a result. Over the whole deposit, 233 (1.1%) are marked active. 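Light values are raw, unnormalised plate reads; the ratio scores behind the reporter calls were not deposited.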 Reagent sequences are not shown. The record does not give: the amount of reagent, the time to read-out, the dose of the treatment.

Knock-down of Tsc1 [DRSC16890] came out at: firefly reporter light, replicate 1 = 5172; firefly reporter light, replicate 2 = 4667; Renilla control light, replicate 1 = 1522; Renilla control light, replicate 2 = 1495; inactive. With knock-down of CG31226 [DRSC21724], the record shows firefly reporter light, replicate 1 = 2.72e5; firefly reporter light, replicate 2 = 3.25e5; Renilla control light, replicate 1 = 95124; Renilla control light, replicate 2 = 89132; inactive. Depletion of CG30403 [DRSC03889] came out at: firefly reporter light, replicate 1 = 4720; firefly reporter light, replicate 2 = 3018; Renilla control light, replicate 1 = 1106; Renilla control light, replicate 2 = 976; inactive. Against Lapsyn [DRSC04249], the entry reads firefly reporter light, replicate 1 = 11904; Renilla control light, replicate 1 = 3293; inactive. For Vps8 [DRSC09705] the deposit lists firefly reporter light, replicate 1 = 1429; firefly reporter light, replicate 2 = 6280; Renilla control light, replicate 1 = 1148; Renilla control light, replicate 2 = 3076; inactive. Cyp6d5 [DRSC16634] scored firefly reporter light, replicate 1 = 3969; Renilla control light, replicate 1 = 1325; inactive.

Against CG6443 [DRSC02958], the entry reads firefly reporter light, replicate 1 = 6028; Renilla control light, replicate 1 = 1691; inactive. For CG5281 [DRSC15761] the deposit lists firefly reporter light, replicate 1 = 13520; Renilla control light, replicate 1 = 2488; inactive. With knock-down of CG3609 [DRSC00620] the results were firefly reporter light, replicate 1 = 2338; firefly reporter light, replicate 2 = 5637; Renilla control light, replicate 1 = 925; Renilla control light, replicate 2 = 2368; inactive.

In a second layout: entries from further up
{"Target gene":"CG30403","amplicon":"DRSC03889","firefly reporter light, replicate 1":4720,"firefly reporter light, replicate 2":3018,"Renilla control light, replicate 1":1106,"Renilla control light, replicate 2":976,"activity call":"inactive"}
{"Target gene":"Lapsyn","amplicon":"DRSC04249","firefly reporter light, replicate 1":11904,"Renilla control light, replicate 1":3293,"activity call":"inactive"}

Next reagents follow:
After knock-down of RpL10Ab [DRSC10798], the screen gave firefly reporter light, replicate 1 = 5994; Renilla control light, replicate 1 = 2186; inactive. Against CG43386 [DRSC17980], the entry reads firefly reporter light, replicate 1 = 18928; Renilla control light, replicate 1 = 8928; inactive. yellow-d [DRSC04589] gave firefly reporter light, replicate 1 = 3404; firefly reporter light, replicate 2 = 6332; Renilla control light, replicate 1 = 800; Renilla control light, replicate 2 = 3178; inactive. After knock-down of Pcp [DRSC03395], the record shows firefly reporter light, replicate 1 = 2738; firefly reporter light, replicate 2 = 9616; Renilla control light, replicate 1 = 1028; Renilla control light, replicate 2 = 3184; inactive. cbc [DRSC06957] showed firefly reporter light, replicate 1 = 11029; Renilla control light, replicate 1 = 5177; inactive. With knock-down of CG15876 [DRSC08484] the results were firefly reporter light, replicate 1 = 848; firefly reporter light, replicate 2 = 5869; Renilla control light, replicate 1 = 769; Renilla control light, replicate 2 = 2540; inactive.

laza [DRSC11661] gave firefly reporter light, replicate 1 = 6667; Renilla control light, replicate 1 = 3046; inactive. Depletion of CG18558 [DRSC00525] came out at: firefly reporter light, replicate 1 = 4203; firefly reporter light, replicate 2 = 7449; Renilla control light, replicate 1 = 1227; Renilla control light, replicate 2 = 2628; inactive. Silencing of CG18558 [DRSC21593] came out at: firefly reporter light, replicate 1 = 5.27e5; firefly reporter light, replicate 2 = 5.74e5; Renilla control light, replicate 1 = 2.59e5; Renilla control light, replicate 2 = 2.60e5; inactive.
